Measurements reported in US3951995A, “Method for industrial production of N-substituted dipropylacetamides” (Laboratorios Made, S.A., priority 1973, dated 1976).

How the values were obtained:
[1] = test system: convulsions and lethal effect of cardiazol; experiment: Anti-convulsant activity against cardiazol; assay type: in vivo, albino rats I.C.R. Swiss; conditions: Diazepam 3,6 mg/kg
Description: There have been employed 4 lots of 10 rats per lot, which received:
Lot (1): I 180 mg/kg and after 30 minutes cardiazol 1 mg/rat.
Lot (2): II 35 mg/kg and after 30 minutes cardiazol 1 mg/rat.
Lot (3): III 18 mg/kg and after 30 minutes cardiazol 1 mg/rat.

[2] = Acute toxicity, lethal dose 50 (LD50), intraperitoneal; conditions: rat, in vivo, ip, albino rats I.C.R. Swiss, both sexes, 24 ± 2 g, I and Diazepam suspended in acacia gum, II and III in HCl
Source text: The lethal dose 50 (LD50) has been determined on albino rats I.C.R. Swiss, of both sexes, weighing 24 ± 2 g. The drugs have been administered by intraperitoneal way.

SMILES: CN1C(=O)CN=C(c2ccccc2)c2cc(Cl)ccc21 [Diazepam, reference compound]
- number of dead animals ([1]; after 30 minutes cardiazol 1 mg/rat, 10 rats per lot, control 0): 0
- number of animals with convulsions ([1]; after 30 minutes cardiazol 1 mg/rat, 10 rats per lot, control 8): 0
- protection against the convulsions originated by cardiazol ([1]; cardiazol 1 mg/rat): 100%
- LD50 [2]: 270 mg/kg
